Chains of the proteins cited; added tags and fusions are not shown.
UniProt P45481: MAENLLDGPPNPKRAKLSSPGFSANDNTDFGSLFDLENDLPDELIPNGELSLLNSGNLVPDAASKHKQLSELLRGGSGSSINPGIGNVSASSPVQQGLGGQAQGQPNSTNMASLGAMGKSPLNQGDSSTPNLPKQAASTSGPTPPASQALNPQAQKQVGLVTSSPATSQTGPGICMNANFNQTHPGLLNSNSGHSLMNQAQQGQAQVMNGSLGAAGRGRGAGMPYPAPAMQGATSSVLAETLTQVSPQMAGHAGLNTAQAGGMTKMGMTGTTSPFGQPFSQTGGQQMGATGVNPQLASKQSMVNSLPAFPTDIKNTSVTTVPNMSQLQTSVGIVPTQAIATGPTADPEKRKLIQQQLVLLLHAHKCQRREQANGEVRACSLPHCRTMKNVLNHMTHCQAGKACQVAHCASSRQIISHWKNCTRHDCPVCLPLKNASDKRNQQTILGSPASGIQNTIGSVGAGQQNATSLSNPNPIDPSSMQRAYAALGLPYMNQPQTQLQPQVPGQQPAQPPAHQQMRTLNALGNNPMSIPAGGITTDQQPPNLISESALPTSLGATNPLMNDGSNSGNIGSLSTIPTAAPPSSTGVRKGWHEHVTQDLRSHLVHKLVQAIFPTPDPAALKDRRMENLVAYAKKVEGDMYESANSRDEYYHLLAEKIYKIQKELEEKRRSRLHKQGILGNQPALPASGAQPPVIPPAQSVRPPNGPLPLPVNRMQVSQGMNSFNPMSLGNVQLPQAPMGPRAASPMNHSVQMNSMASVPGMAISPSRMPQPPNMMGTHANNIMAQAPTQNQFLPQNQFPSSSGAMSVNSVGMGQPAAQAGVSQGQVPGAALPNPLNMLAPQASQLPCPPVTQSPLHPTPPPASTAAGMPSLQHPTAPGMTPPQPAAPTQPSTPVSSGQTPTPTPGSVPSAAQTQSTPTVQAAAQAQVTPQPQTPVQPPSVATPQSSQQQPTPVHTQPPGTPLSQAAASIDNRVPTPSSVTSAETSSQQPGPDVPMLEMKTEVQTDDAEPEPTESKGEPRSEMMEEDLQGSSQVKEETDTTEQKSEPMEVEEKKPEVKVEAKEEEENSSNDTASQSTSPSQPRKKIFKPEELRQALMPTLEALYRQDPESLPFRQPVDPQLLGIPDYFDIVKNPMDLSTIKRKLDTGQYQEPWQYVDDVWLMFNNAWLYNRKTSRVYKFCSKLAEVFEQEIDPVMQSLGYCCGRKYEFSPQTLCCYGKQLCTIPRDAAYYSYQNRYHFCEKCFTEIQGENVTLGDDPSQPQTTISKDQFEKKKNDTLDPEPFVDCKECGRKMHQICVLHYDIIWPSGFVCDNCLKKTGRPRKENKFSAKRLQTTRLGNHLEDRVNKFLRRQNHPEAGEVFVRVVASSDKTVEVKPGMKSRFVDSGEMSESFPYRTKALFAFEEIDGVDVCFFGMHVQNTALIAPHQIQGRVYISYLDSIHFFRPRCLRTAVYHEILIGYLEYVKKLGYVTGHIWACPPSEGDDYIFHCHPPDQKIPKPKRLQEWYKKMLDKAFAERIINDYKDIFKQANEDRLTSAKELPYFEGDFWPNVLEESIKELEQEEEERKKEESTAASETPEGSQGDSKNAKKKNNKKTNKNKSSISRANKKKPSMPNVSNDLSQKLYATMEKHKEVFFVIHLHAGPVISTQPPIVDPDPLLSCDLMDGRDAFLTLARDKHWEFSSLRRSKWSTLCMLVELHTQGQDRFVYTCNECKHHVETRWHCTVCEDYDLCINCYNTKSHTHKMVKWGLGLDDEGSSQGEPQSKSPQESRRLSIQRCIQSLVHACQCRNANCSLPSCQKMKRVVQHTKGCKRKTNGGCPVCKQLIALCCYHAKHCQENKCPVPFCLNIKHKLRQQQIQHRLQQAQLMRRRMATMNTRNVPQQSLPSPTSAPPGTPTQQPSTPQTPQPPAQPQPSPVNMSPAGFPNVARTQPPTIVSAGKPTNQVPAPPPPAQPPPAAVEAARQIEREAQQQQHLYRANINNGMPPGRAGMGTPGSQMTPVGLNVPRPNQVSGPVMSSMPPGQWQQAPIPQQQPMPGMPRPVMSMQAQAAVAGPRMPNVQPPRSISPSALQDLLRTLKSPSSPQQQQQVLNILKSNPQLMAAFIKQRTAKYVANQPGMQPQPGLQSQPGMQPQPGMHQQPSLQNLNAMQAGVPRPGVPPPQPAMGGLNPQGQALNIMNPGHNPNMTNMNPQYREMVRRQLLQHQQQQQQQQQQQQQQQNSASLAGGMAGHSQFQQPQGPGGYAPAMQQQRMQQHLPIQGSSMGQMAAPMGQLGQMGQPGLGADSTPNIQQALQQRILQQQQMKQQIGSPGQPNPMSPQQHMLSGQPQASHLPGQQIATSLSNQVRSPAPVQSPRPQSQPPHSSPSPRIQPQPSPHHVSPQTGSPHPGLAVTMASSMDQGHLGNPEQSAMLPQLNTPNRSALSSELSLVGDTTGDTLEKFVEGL

According to article doi:10.1101/2023.05.23.542025:

Target: T1, Flag-tagged STAT6 (UniProt P52633)
T1 sequence: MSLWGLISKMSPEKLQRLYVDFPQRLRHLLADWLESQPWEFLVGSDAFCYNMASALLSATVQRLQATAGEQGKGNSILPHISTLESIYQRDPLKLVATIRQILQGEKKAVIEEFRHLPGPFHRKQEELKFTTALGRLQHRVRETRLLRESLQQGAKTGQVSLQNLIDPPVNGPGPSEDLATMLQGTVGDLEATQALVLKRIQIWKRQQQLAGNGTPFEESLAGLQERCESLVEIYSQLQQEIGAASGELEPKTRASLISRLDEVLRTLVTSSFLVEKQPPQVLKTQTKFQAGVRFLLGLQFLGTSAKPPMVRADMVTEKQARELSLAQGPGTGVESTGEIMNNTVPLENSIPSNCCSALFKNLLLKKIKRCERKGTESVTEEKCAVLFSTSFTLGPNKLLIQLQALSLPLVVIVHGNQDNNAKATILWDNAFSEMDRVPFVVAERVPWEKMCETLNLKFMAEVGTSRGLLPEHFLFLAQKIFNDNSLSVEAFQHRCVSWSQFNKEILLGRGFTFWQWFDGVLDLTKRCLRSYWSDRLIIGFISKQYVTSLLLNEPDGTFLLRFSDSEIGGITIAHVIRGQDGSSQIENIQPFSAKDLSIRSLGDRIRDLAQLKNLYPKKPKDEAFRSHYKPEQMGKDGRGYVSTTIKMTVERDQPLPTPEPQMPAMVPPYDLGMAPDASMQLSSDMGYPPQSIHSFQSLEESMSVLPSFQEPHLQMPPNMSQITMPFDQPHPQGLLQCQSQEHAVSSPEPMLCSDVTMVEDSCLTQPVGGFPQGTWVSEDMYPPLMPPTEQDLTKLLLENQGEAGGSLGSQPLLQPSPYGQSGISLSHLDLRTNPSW
Assay: affinity purification with mass spectrometry

binding: binds
Substance: cAMP-response element binding protein (CBP) (from UniProt P45481 1-2441)

These are yes or no findings as the source states them, for the method shown. In cells and extracts the contact can be indirect. A yes stands for co-enrichment or nearness to the bait. Other partners may have been found. Where a sequence is shown, tags or fusion partners need not be part of it.
